These are yes or no findings as the source states them, for the method shown. In cells and extracts the contact can be indirect. A yes stands for co-enrichment or nearness to the bait. Other partners may have been found. For some of these results: Sequences can lack the tags named with a protein.
Tests used:
Assay in all cases: affinity purification with mass spectrometry; 293T cells transfected with Flag-tagged NSD2 isoform, Flag alone as control; lysed after 48 h, immunoprecipitation, SDS-PAGE, silver-stained strips analysed by LTQ-ESI-MS, label-free quantification, three biological replicates
[1] = target: T1, Flag-tagged NSD2 Isoform 3 (human) (UniProt O96028)
T1 sequence: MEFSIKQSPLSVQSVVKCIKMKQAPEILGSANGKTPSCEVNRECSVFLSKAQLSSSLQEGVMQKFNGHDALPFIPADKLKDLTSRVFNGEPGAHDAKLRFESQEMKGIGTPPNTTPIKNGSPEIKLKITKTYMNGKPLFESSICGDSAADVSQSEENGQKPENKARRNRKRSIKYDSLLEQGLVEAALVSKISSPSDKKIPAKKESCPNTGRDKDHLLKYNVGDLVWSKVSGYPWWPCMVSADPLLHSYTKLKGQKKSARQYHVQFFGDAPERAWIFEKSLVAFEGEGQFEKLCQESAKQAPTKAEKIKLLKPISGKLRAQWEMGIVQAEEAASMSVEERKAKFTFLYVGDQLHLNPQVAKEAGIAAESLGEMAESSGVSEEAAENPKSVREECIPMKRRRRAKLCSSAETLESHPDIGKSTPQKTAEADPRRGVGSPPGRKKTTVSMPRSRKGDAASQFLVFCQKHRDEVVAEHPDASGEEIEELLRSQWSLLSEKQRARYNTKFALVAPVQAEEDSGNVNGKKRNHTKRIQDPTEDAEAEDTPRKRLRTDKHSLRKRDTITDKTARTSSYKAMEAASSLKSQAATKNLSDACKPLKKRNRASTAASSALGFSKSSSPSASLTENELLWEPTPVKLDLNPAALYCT

Amino acid sequences for entries named in this document (tags omitted).
UniProt P11142: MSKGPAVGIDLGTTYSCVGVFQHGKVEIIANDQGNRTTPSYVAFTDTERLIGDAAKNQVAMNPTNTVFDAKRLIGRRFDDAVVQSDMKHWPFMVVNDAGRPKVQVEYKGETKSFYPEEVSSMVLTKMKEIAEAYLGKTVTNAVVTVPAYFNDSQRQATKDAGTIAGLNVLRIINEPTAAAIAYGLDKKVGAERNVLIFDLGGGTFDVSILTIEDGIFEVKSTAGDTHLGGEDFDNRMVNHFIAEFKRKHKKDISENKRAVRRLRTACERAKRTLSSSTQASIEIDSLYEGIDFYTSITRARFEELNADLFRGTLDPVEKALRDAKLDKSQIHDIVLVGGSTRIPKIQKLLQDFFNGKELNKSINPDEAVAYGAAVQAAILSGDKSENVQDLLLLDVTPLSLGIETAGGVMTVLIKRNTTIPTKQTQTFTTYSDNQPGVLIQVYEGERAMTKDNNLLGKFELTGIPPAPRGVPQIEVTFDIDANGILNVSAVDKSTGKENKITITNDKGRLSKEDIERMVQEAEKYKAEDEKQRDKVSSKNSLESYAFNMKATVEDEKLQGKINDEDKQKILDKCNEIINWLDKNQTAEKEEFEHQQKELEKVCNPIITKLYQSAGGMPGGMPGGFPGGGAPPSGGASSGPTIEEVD

[2] = target: T2, Flag-tagged NSD2 Isoform 5 (human) (UniProt O96028)
T2 sequence: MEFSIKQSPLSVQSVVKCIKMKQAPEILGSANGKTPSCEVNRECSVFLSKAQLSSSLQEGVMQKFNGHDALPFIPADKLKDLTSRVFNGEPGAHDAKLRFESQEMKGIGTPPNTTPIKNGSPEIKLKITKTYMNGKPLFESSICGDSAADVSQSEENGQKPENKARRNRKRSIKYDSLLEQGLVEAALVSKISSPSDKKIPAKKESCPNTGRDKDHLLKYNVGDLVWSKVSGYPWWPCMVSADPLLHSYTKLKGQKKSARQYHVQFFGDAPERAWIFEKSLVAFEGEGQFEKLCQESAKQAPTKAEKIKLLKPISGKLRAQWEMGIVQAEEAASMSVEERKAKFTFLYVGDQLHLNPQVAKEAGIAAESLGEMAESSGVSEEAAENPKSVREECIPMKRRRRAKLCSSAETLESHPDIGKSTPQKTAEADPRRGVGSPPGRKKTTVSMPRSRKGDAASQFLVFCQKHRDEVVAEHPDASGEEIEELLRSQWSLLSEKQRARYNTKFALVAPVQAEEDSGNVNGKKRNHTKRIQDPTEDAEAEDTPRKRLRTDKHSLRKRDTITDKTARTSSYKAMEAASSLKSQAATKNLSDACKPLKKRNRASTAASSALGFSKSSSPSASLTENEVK

[3] = target: T3, Flag-tagged NSD2 Isoform 7 (human) (UniProt O96028)
T3 sequence: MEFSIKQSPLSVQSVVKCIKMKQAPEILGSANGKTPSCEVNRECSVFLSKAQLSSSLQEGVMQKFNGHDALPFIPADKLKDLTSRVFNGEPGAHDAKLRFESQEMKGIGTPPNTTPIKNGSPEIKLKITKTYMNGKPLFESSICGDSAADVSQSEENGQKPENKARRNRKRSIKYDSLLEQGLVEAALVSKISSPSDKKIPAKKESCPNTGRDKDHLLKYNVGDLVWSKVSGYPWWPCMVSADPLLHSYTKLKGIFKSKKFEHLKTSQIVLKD

[4] = target: Flag-tagged NSD2 Isoform 1 (human) (UniProt O96028)

Measured: binding

HSPA8 (endogenous, found by IP-MS) (from UniProt P11142 1-646)
binds: all assays above

— paper PMC7947288
